Results of single-concentration screens

The values are deposited in ChEMBL (CHEMBL3988442, “University of Dundee, Small-Polar-MMV Screening Library” (2021)).

Each number is a percent effect as filed. The controls that fix the scale are not given in the record; negative values are as filed. The compounds are a random part of those screened.

A: 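Phenotypic screen: M. tuberculosis growth, cholesterol and DPPC medium, 4 days; the read-out is not stated. Tested at 500 µM. Direction is inferred from retests: higher values go with more growth inhibition. Size under these conditions: about 18,000 compounds, about 900 of them at 50% or above in at least one test.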
B: 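Phenotypic screen: M. tuberculosis growth, glucose 7H9 medium, 3 days; the read-out is not stated. Tested at 500 µM. Higher reads as more growth inhibition (inferred: compounds with an IC50 in retests scored well above the rest). About 18,000 compounds were tested under these conditions; 7.9% (about 1,400) showed 50% or more at least once.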

SMILES,A,B
CCO[C@@H]1CNC[C@H]1CNC(=O)OC(C)(C)C,-10.62%,-9.564%
Cc1noc(C)c1CN1CCC(O)CC1,-4.138%,-0.2193%
CC(N)c1ccc2c(c1)CCN2 (configuration not stated),-0.3488%,10.48%
Cn1cccc1C1CCCCN1 (configuration not stated),3.968%,22.62%
CCn1ncnc1CN1CCC(c2noc(C)n2)CC1,6.768%,13.09%
CNC1CCN(C(=O)OC(C)(C)C)C1 (configuration not stated),-1.111%,-0.6074%
CC(C(=O)N1CCOCC1)N1CCNCC1 (configuration not stated),-14.99%,-15.58%
c1cc(NCC2CCCO2)ccn1 (configuration not stated),8.56%,9.804%
CC(C)COc1cccc(CC(N)=O)c1,8.025%,17.05%
CC(C)(C)OC(=O)N1CCC(CN)C(F)(F)C1 (configuration not stated),-18.76%,-6.268%
Cn1ccnc1N1CCN(C(=O)C2CCCOC2)CC1 (configuration not stated),0.1157%,7.248%
COCCNC(=O)CSC1CCCC1,-11.78%,14.58%
CCNCc1cc(Cl)c(OCC(N)=O)c(OC)c1,11.49%,10.84%
CC(C(=O)NCc1ccc(Cl)s1)S(C)(=O)=O (configuration not stated),-23.41%,23.16%
COC1CCCNCC1 (configuration not stated),4.932%,6.8%
CNC(=O)[C@@H]1C[C@@H](N)CN1Cc1cccnc1OC,9.742%,-3.438%
CN(C)C(=O)N[C@@H]1CN[C@H](CO)C1,-4.774%,1.141%
NC(=O)CCC(F)(F)F,6.228%,0.9226%
COc1cccc(CN2CCC(N(C)C(C)=O)CC2)c1,8.731%,4.534%
O=C(NCc1nnc2n1CCC2)c1sccc1C1CC1,7.172%,9.429%
CO[C@@H]1COCC[C@H]1NC(=O)c1ccc(C#N)nc1,1.831%,-1.47%
CC1(CNC(=O)c2cccc(OC(F)F)c2)COC1,5.669%,11.3%
NCC(=O)Nc1ccc2c(c1)CCC2,14.81%,9.188%
CCN(CC1CCCCO1)C(=O)Cc1cccnc1 (configuration not stated),-6.437%,8.015%
Cn1nc(-c2nc(C3CCOC3)no2)ccc1=O (configuration not stated),1.589%,7.634%
CC(=O)c1cc(CN2CC(N3CCOCC3)C2)n(C)c1,-16.08%,-5.973%
COc1cc(N2CCNCC2)ccc1F,27.43%,54.37%
Cc1ccc2nc(C(=O)N[C@H](C)C(N)=O)c(F)n2c1,-13.49%,-5.772%
O=C(NC1CNC1)C1CC1,-2.01%,3.638%
CCNC(=O)C1CCN(C(=O)CSc2nnc(N)s2)C1 (configuration not stated),-3.631%,8.776%
O=C(CCNC(=O)c1ccco1)Nc1ccccn1,-8.3%,2.654%
CNC(=O)C1(C)CCN(C(=O)c2n[nH]c(N)c2Cl)CC1,-0.007414%,7.64%
c1ccc(-n2nnnc2N2CCN(C3CC3)CC2)cc1,-13.16%,-21.51%
COc1ccc(CC(=O)N2CCCNCC2)cc1,8.089%,46.73%
CCN(CC)C(=O)CSc1nc2c(cc1C#N)CCC2,-18.83%,-18.06%
CSCCN1CCN(C(=O)CCc2ccncc2)CC1,-1.759%,13.65%
COC(=O)N(C)CC(=O)NCc1ccccc1,-14.1%,13.25%
O=C(Cc1ccc(O)cc1Cl)N1CCCC1CO (configuration not stated),16.56%,28.82%
O=C1CN(C(=O)c2ccc(Br)s2)c2ccccc2N1,14.38%,15.85%
Cc1nc(NC(=O)NCCC(C)O)sc1C (configuration not stated),13.09%,27.52%
Nc1nc(CO)cs1,-3.835%,16.11%
COc1nc(CO)c(C)cc1C,7.895%,10.05%
O=C(Cc1ccc(O)c(Cl)c1)NC[C@@H]1C[C@H](F)CN1,-6.004%,18.02%
CC(C)NC(=O)NC1(C)CCS(=O)(=O)C1 (configuration not stated),1.112%,-1.769%
CC(N)C(=O)N1CCC(OCc2ccc(F)cc2)CC1 (configuration not stated),0.9497%,1.135%
Cc1csc(C(C)CNC(=O)c2cc(CO)ccn2)n1 (configuration not stated),17.26%,37.81%
CC(C)COCCN(C)CC1CCS(=O)(=O)C1 (configuration not stated),1.94%,20.07%
CCn1cc(S(=O)(=O)N2CC[S+]([O-])C(C)(C)C2)cn1 (configuration not stated),-14.43%,-7.593%

3 of the entries, repeated:

SMILES,A,B
COCCNC(=O)CSC1CCCC1,-11.78%,14.58%
COc1cccc(CN2CCC(N(C)C(C)=O)CC2)c1,8.731%,4.534%
COc1nc(CO)c(C)cc1C,7.895%,10.05%